# This is one part of the list.
# Experiments:
# Assay in all cases: glycan array binding signal (z-score within array); higher = stronger binding
# Conditions in all cases: glycan notation: IUPAC condensed, linker removed
# [1] = target: Fuc(a1-3)[Gal(b1-4)]Glc6S
# How it was run: (§1)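 The binding signal is a Z-score computed within each array. Data were drawn from 3228 arrays in the Consortium for Functional Glycomics database, restricted to those with a known protein sequence. Scores were averaged over arrays of the same protein sequence at different concentrations or buffers, and over linkers, and negative values can be taken as non-binding.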
# [2] = target: Fuc(a1-3)[Gal(b1-4)]GlcNAc
# How it was run: as §1
# [3] = target: Fuc(a1-3)[Gal(b1-4)]GlcNAc(b1-2)Man(a1-3)[Fuc(a1-3)[Gal(b1-4)]GlcNAc(b1-2)Man(a1-6)]Man(b1-4)GlcNAc(b1-4)GlcNAc
# How it was run: as §1
# [4] = target: Fuc(a1-3)[Gal(b1-4)]GlcNAc(b1-2)Man(a1-6)[Gal(b1-4)GlcNAc(b1-2)Man(a1-3)]Man(b1-4)GlcNAc(b1-4)GlcNAc
# How it was run: as §1
# [5] = target: Fuc(a1-3)[Gal(b1-4)]GlcNAc(b1-3)Gal(b1-3)[Fuc(a1-4)]GlcNAc
# How it was run: as §1
# [6] = target: Fuc(a1-3)[Gal(b1-4)]GlcNAc(b1-4)Gal(b1-4)[Fuc(a1-3)]GlcNAc
# How it was run: as §1
# [7] = target: Fuc(a1-3)[Gal(b1-4)]GlcNAc(b1-4)Gal(b1-4)[Fuc(a1-3)]GlcNAc(b1-4)Gal(b1-4)[Fuc(a1-3)]GlcNAc
# How it was run: as §1
# [8] = target: Fuc(a1-3)[Gal(b1-4)]GlcNAc6S
# How it was run: as §1
# [9] = target: Fuc(a1-3)[Gal3S(b1-4)]Glc6S
# How it was run: as §1
# [10] = target: Fuc(a1-3)[Gal3S(b1-4)]GlcNAc
# How it was run: as §1
# [11] = target: Fuc(a1-3)[Gal3S(b1-4)]GlcNAc6S
# How it was run: as §1
# [12] = target: Fuc(a1-3)[GalNAc(b1-4)]GlcNAc
# How it was run: as §1
# [13] = target: Fuc(a1-3)[Neu5Ac(a2-3)]Gal(b1-4)GlcNAc(b1-3)GalNAc
# How it was run: as §1
# [14] = target: Fuc(a1-4)GlcNAc
# How it was run: as §1
# [15] = target: Fuc(b1-3)GlcNAc
# How it was run: as §1
# [16] = target: Gal(a1-2)Gal
# How it was run: as §1
# [17] = target: Gal(a1-3)Gal
# How it was run: as §1
# [18] = target: Gal(a1-3)Gal(b1-3)GlcNAc
# How it was run: as §1
# [19] = target: Gal(a1-3)Gal(b1-4)Glc
# How it was run: as §1
# [20] = target: Gal(a1-3)Gal(b1-4)GlcNAc
# How it was run: as §1
# [21] = target: Gal(a1-3)Gal(b1-4)[Fuc(a1-3)]GlcNAc
# How it was run: as §1
# [22] = target: Gal(a1-3)Gal(b1-4)[Fuc(a1-3)]GlcNAc(b1-2)Man(a1-3)[Gal(a1-3)Gal(b1-4)[Fuc(a1-3)]GlcNAc(b1-2)Man(a1-6)]Man(b1-4)GlcNAc(b1-4)GlcNAc
# How it was run: as §1
# [23] = target: Gal(a1-3)GalNAc
# How it was run: as §1
# [24] = target: Gal(a1-3)[Gal(a1-4)]Gal(b1-4)GlcNAc
# How it was run: as §1
# [25] = target: Gal(a1-4)Gal(b1-4)Glc
# How it was run: as §1
# [26] = target: Gal(a1-4)Gal(b1-4)GlcNAc
# How it was run: as §1
# [27] = target: Gal(a1-4)Gal(b1-4)GlcNAc(b1-3)Gal(b1-4)Glc
# How it was run: as §1
# [28] = target: Gal(a1-4)GlcNAc
# How it was run: as §1
# [29] = target: Gal(a1-6)Glc
# How it was run: as §1
# [30] = target: Gal(b1-2)Gal
# How it was run: as §1
# [31] = target: Gal(b1-3)Gal
# How it was run: as §1
# [32] = target: Gal(b1-3)Gal(b1-4)GlcNAc
# How it was run: as §1
# [33] = target: Gal(b1-3)Gal(b1-4)GlcNAc(b1-2)Man(a1-3)[Gal(b1-3)Gal(b1-4)GlcNAc(b1-2)Man(a1-6)]Man(b1-4)GlcNAc(b1-4)GlcNAc
# How it was run: as §1
# [34] = target: Gal(b1-3)GalNAc
# How it was run: as §1
# [35] = target: Gal(b1-3)GalNAc(a1-3)[Fuc(a1-2)]Gal(b1-4)Glc
# How it was run: as §1
# [36] = target: Gal(b1-3)GalNAc(a1-3)[Fuc(a1-2)]Gal(b1-4)GlcNAc
# How it was run: as §1
# [37] = target: Gal(b1-3)GalNAc(b1-3)Gal(a1-4)Gal(b1-4)Glc
# How it was run: as §1
# [38] = target: Gal(b1-3)GalNAc(b1-4)Gal(b1-4)Glc
# How it was run: as §1
# [39] = target: Gal(b1-3)GalNAc(b1-4)[Neu5Ac(a2-3)]Gal(b1-4)Glc
# How it was run: as §1
# [40] = target: Gal(b1-3)GlcNAc
# How it was run: as §1
# [41] = target: Gal(b1-3)GlcNAc(b1-2)Man(a1-3)[Gal(b1-3)GlcNAc(b1-2)Man(a1-6)]Man(b1-4)GlcNAc(b1-4)GlcNAc
# How it was run: as §1
# [42] = target: Gal(b1-3)GlcNAc(b1-2)Man(a1-3)[Gal(b1-3)GlcNAc(b1-2)Man(a1-6)]Man(b1-4)GlcNAc(b1-4)[Fuc(a1-6)]GlcNAc
# How it was run: as §1
# [43] = target: Gal(b1-3)GlcNAc(b1-3)Gal(b1-3)GlcNAc
# How it was run: as §1
# [44] = target: Gal(b1-3)GlcNAc(b1-3)Gal(b1-4)Glc
# How it was run: as §1
# [45] = target: Gal(b1-3)GlcNAc(b1-3)Gal(b1-4)GlcNAc
# How it was run: as §1
binder,measurement,setting,value
"HHL-2 (Homo sapiens), P07307 (protein) MAKDFQDIQQLSSEENDHPFHQGEGPGTRRLNPRRGNPFLKGPPPAQPLAQRLCSMVCFSLLALSFNILLLVVICVTGSQSEGHRGAQLQAELRSLKEAFSNFSSSTLTEVQAISTHGGSVGDKITSLGAKLEKQQQDLKADHDALLFHLKHFPVDLRFVACQMELLHSNGSQRTCCPVNWVEHQGSCYWFSHSGKAWAEAEKYCQLENAHLVVINSWEEQKFIVQHTNPFNTWIGLTDSDGSWKWVDGTDYRHNYKNWAVTQPDNWHGHELGGSEDCVEVQPDGRWNDDFCLQVYRWVCEKRRNATGEVA",glycan array binding signal (z-score),[1],-0.062
same,glycan array binding signal (z-score),[2],-0.276
same,glycan array binding signal (z-score),[3],0.278
same,glycan array binding signal (z-score),[4],-0.987
same,glycan array binding signal (z-score),[5],-0.559
same,glycan array binding signal (z-score),[6],-0.334
same,glycan array binding signal (z-score),[7],0.267
same,glycan array binding signal (z-score),[8],-0.074
same,glycan array binding signal (z-score),[9],-0.68
same,glycan array binding signal (z-score),[10],0.06
same,glycan array binding signal (z-score),[11],0.079
same,glycan array binding signal (z-score),[12],-0.451
same,glycan array binding signal (z-score),[13],6.72
same,glycan array binding signal (z-score),[14],0.449
same,glycan array binding signal (z-score),[15],-0.563
same,glycan array binding signal (z-score),[16],-0.135
same,glycan array binding signal (z-score),[17],-0.286
same,glycan array binding signal (z-score),[18],-0.915
same,glycan array binding signal (z-score),[19],-0.398
same,glycan array binding signal (z-score),[20],-0.356
same,glycan array binding signal (z-score),[21],-0.784
same,glycan array binding signal (z-score),[22],-0.354
same,glycan array binding signal (z-score),[23],0.409
same,glycan array binding signal (z-score),[24],1.67
same,glycan array binding signal (z-score),[25],2.09
same,glycan array binding signal (z-score),[26],-0.422
same,glycan array binding signal (z-score),[27],-0.794
same,glycan array binding signal (z-score),[28],-0.168
same,glycan array binding signal (z-score),[29],0.65
same,glycan array binding signal (z-score),[30],-0.13
same,glycan array binding signal (z-score),[31],0.298
same,glycan array binding signal (z-score),[32],-0.187
same,glycan array binding signal (z-score),[33],-0.335
same,glycan array binding signal (z-score),[34],-0.603
same,glycan array binding signal (z-score),[35],1.96
same,glycan array binding signal (z-score),[36],-0.536
same,glycan array binding signal (z-score),[37],-0.382
same,glycan array binding signal (z-score),[38],-0.88
same,glycan array binding signal (z-score),[39],-0.892
same,glycan array binding signal (z-score),[40],-0.575
same,glycan array binding signal (z-score),[41],-0.379
same,glycan array binding signal (z-score),[42],0.113
same,glycan array binding signal (z-score),[43],-0.113
same,glycan array binding signal (z-score),[44],-0.384
same,glycan array binding signal (z-score),[45],-0.469

# A portion from further up, for reference:
binder,measurement,setting,value
"HHL-2 (Homo sapiens), P07307 (protein) MAKDFQDIQQLSSEENDHPFHQGEGPGTRRLNPRRGNPFLKGPPPAQPLAQRLCSMVCFSLLALSFNILLLVVICVTGSQSEGHRGAQLQAELRSLKEAFSNFSSSTLTEVQAISTHGGSVGDKITSLGAKLEKQQQDLKADHDALLFHLKHFPVDLRFVACQMELLHSNGSQRTCCPVNWVEHQGSCYWFSHSGKAWAEAEKYCQLENAHLVVINSWEEQKFIVQHTNPFNTWIGLTDSDGSWKWVDGTDYRHNYKNWAVTQPDNWHGHELGGSEDCVEVQPDGRWNDDFCLQVYRWVCEKRRNATGEVA",glycan array binding signal (z-score),[3],0.278
same,glycan array binding signal (z-score),[4],-0.987
same,glycan array binding signal (z-score),[5],-0.559
same,glycan array binding signal (z-score),[6],-0.334
same,glycan array binding signal (z-score),[7],0.267
same,glycan array binding signal (z-score),[8],-0.074
same,glycan array binding signal (z-score),[9],-0.68
same,glycan array binding signal (z-score),[10],0.06
same,glycan array binding signal (z-score),[11],0.079

# From the supplement of paper PMC8728848
